{
  "source": "patent US20240376517A1",
  "about": "(THE UNIVERSITY COURT OF THE UNIVERSITY OF EDINBURCH, priority 2021, published 2024)",
  "test": "general procedure: peptide synthesis; 2-chlorotrityl chloride polystyrene resin; COMU/Oxyma/DIPEA",
  "conditions": "whole synthesis",
  "note": "HELM strings list residues between dots; [ac] is acetyl, [am] amide, other brackets name non-standard units.",
  "data": [
    {"substance": "PEPTIDE1{[SulfoCy5].[Ile-3open].E.P.D.A.L.[PEG4-QSY21]}$$$$V2.0", "values": [
      {"measurement": "final HPLC purity", "result": 99, "unit": "%"}
    ]}
  ]
}
